{"source": "PubChem BioAssay AID1053208 – Peter MacCallum Cancer Centre | 2014", "test": "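Find knock-downs that sensitise mouse osteosarcoma cells to doxorubicin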 (primary screen)", "cell system": "mouse osteosarcoma cells, early-passage culture from an engineered mouse model of fibroblastic bone tumour", "reagents": "siRNA pool against mouse genes, 40 nM", "duration": "about 120 h (48 h before drug, then 72 h with drug)", "challenge": "doxorubicin 100 nM for 72 h, roughly 30-40% inhibitory dose", "measured": "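Viability read as ATP luminescence after 72 h of 100 nM doxorubicin or none, duplicate wells averaged, scaled to non-targeting siRNA, then expressed as robust z-scores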", "reading the numbers": "viability z-score with doxorubicin: higher = more viable cells under doxorubicin; viability z-score without drug: higher = more viable cells with knock-down alone", "active means": "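a pool counts as active when its viability z-score with doxorubicin is -2 or below and its z-score without drug lies between -2 and 2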", "note": "This is a random part of about 17,000 reagents tested. 788 of all reagents (4.7%) were called active. 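Calls rest on z-score classes alone; an extra cut-off of viability at most 70% of control was not applied to them.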 Further read-outs or replicates are left out here."}
The first 2 records as a preview:
{"Gene": "Klk1b26 (GeneID 16618)", "combined z-score class": "no change with or without drug", "viability z-score with doxorubicin": 1.57, "viability z-score without drug": 1.35, "outcome": "inactive"}
{"Gene": "Slc35f6 (GeneID 74919)", "combined z-score class": "no change with or without drug", "viability z-score with doxorubicin": -0.67, "viability z-score without drug": 1.18, "outcome": "inactive"}

Main list, repeating the preview:
{"Gene": "Klk1b26 (GeneID 16618)", "combined z-score class": "no change with or without drug", "viability z-score with doxorubicin": 1.57, "viability z-score without drug": 1.35, "outcome": "inactive"}
{"Gene": "Slc35f6 (GeneID 74919)", "combined z-score class": "no change with or without drug", "viability z-score with doxorubicin": -0.67, "viability z-score without drug": 1.18, "outcome": "inactive"}
{"Gene": "Slc72a1 (GeneID 15247)", "combined z-score class": "high cell count with doxorubicin only", "viability z-score with doxorubicin": 2.02, "viability z-score without drug": 1.52, "outcome": "inactive"}
{"Gene": "Cacna1f (GeneID 54652)", "combined z-score class": "no change with or without drug", "viability z-score with doxorubicin": 0.67, "viability z-score without drug": 0.51, "outcome": "inactive"}
{"Gene": "Rps26 (GeneID 27370)", "combined z-score class": "low cell count with and without drug", "viability z-score with doxorubicin": -7.31, "viability z-score without drug": -5.23, "outcome": "inactive"}
{"Gene": "Pcdhb14 (GeneID 93885)", "combined z-score class": "low cell count with and without drug", "viability z-score with doxorubicin": -2.81, "viability z-score without drug": -2.19, "outcome": "inactive"}
{"Gene": "Siglech (GeneID 233274)", "combined z-score class": "no change with or without drug", "viability z-score with doxorubicin": -0.11, "viability z-score without drug": -0.84, "outcome": "inactive"}
{"Gene": "Syt9 (GeneID 60510)", "combined z-score class": "no change with or without drug", "viability z-score with doxorubicin": 0.22, "viability z-score without drug": -1.18, "outcome": "inactive"}
{"Gene": "Ftsj3 (GeneID 56095)", "combined z-score class": "no change with or without drug", "viability z-score with doxorubicin": 0, "viability z-score without drug": 0.67, "outcome": "inactive"}
{"Gene": "Tcap (GeneID 21393)", "combined z-score class": "no change with or without drug", "viability z-score with doxorubicin": -0.22, "viability z-score without drug": 0.17, "outcome": "inactive"}
{"Gene": "Mrgpra8 (GeneID 404237)", "combined z-score class": "no change with or without drug", "viability z-score with doxorubicin": 0.45, "viability z-score without drug": -0.17, "outcome": "inactive"}
{"Gene": "Vps41 (GeneID 218035)", "combined z-score class": "no change with or without drug", "viability z-score with doxorubicin": -0.11, "viability z-score without drug": 1.35, "outcome": "inactive"}
{"Gene": "Cdkal1 (GeneID 68916)", "combined z-score class": "no change with or without drug", "viability z-score with doxorubicin": 0.34, "viability z-score without drug": 0, "outcome": "inactive"}
{"Gene": "Corin (GeneID 53419)", "combined z-score class": "no change with or without drug", "viability z-score with doxorubicin": -1.8, "viability z-score without drug": 0, "outcome": "inactive"}
{"Gene": "Ccl17 (GeneID 20295)", "combined z-score class": "no change with or without drug", "viability z-score with doxorubicin": -0.11, "viability z-score without drug": -0.67, "outcome": "inactive"}
{"Gene": "Mgll (GeneID 23945)", "combined z-score class": "no change with or without drug", "viability z-score with doxorubicin": 0.79, "viability z-score without drug": 0.34, "outcome": "inactive"}
{"Gene": "Lactb (GeneID 80907)", "combined z-score class": "no change with or without drug", "viability z-score with doxorubicin": 0, "viability z-score without drug": 0.67, "outcome": "inactive"}
{"Gene": "Pnpla8 (GeneID 67452)", "combined z-score class": "no change with or without drug", "viability z-score with doxorubicin": -1.91, "viability z-score without drug": -0.67, "outcome": "inactive"}
{"Gene": "Cdk2ap1 (GeneID 13445)", "combined z-score class": "no change with or without drug", "viability z-score with doxorubicin": -0.79, "viability z-score without drug": -0.84, "outcome": "inactive"}
